Measurements: PubChem BioAssay AID504648 (National Center for Advancing Translational Sciences (NCATS), 2011)
The campaign covered roughly 390,000 compounds. About 610 (0.16%) were called active. The shares of active, inactive and inconclusive entries below differ from those in the screen. Calls come from the whole dose curve; as a rule, active = well fitted inhibition curve with a large enough effect; inconclusive = small, poorly fitted or top-dose-only effect, or effect the other way, or another doubt; inactive = no such curve, though single readings can be large or run the other way. Potencies beside an inconclusive call are fits to weak or partial responses and may not hold up.
% is set by controls: 0 for no effect and ±100 for the full control effect; potency is the fitted concentration of half-maximal effect.

Assay: Nrf2 qHTS screen for inhibitors: counterscreen for cytotoxicity
Conditions: A549 ARE-Fluc cells, CellTiter-Fluor viability, 18-24 h; activity change, negative = cytotoxicity: at 46 µM (top of the series)
Source text: NIH Molecular Libraries Probe Production Network [MLPCN]
NIH Chemical Genomics Center [NCGC]
Assay Provider: Shyam Biswal, Johns Hopkins University
Nrf2 is a transcription factor that maintains cellular redox homoestasis and protects cells from xenobiotics. Nrf2 binds to the antioxidant response element (ARE) to induce gene expression of a broad spectrum of genes that encode for antioxidants. […] Finding a small molecule that act as an inhibitor of Nrf2 function would represent a novel therapeutic target that could lead to improvement in survival of patients undergoing chemo- and/or radio- therapy.
So here we implemented a counterscreen to weed out the cytotoxic compounds.
1. Shibata, T., et al., Genetic Alteration of Keap1 Confers Constitutive Nrf2 Activation and Resistance to Chemotherapy in Gallbladder Cancer. Gastroenterology, 2008.
2. Sjoblom, T., et al., The consensus coding sequences of human breast and colorectal cancers. Science, 2006. 314(5797): p. 268-74.
NCGC Assay Protocol Summary:
A concentration-response assay was performed with A549 ARE_Fluc cells which are suspended in 5% FBS OPTI-MEM. Five uL were dispensed into 1536-well white TC-treated plate using the Kalypsys dispenser to achieve a density of 5000 cells/well in all columns except column 1. The plate is incubated at 37deg C at 5% CO2 for 2 hours before 23 nL of compounds are added with the Kalypsys pin tool equipped with a 1,536-pin array containing 10-nL slotted pins (FP1S10, 0.457-mm diameter, 50.8 mm long; V&P Scientific). The control compounds Budesonide and Staurosporine are both added at a concentration of 2mM and Budesonide is also added as a 1:10 titration, starting at 200uM, to achieve dose-response. After an 18-24 hour incubation at 37deg C at 5% CO2, 5ul of medium is added to column 1. Afterwards 1ul of 5x of CellTiter-Fluor (Promega) is added to every well. The plate is then incubated at 37deg C at 5% CO2 for 30 minutes before they are read on the ViewLux (Perkin Elmer) for a fluorescent read Ex=405(10)/Em=525(10) for a 3 second exposure, 2x binning, and high gain. Then 3 uL of 3x BugLite is dispensed into all wells and the plate is incubated at ambient room temperature for 15 minutes. Afterwards another ViewLux read is performed using the clear filter to get a luminescent read with the settings of 40 second exposure, 2x binning, and high gain. Cytotoxicity is assessed through the first fluorescent read and then biochemical activity against Nrf2 is measured in the luminescent read.
With `O=C(c1ccc(Cl)cc1)N1CCC2CC1c1cc(-c3ccccc3)ccc12` (configuration not stated) the Potency was inconclusive: 20.6 µM [activator, partial curve, poor fit]. In the case of `CCOC(=O)c1cnc2ccc(OC)cc2c1Nc1ccc(OCc2ccccc2Cl)cc1`, the “activity change, negative = cytotoxicity” value is reported as inactive: -13.9%. With `C#Cc1ccc([C@H]2C=C(C(=O)O)O[C@@H](OCc3ccc(CO)cc3)C2)cc1` the “activity change, negative = cytotoxicity” value was inactive: -5.2%. With `O=C(c1ccco1)N1CCN(c2nc(C3CC3)nc3sc4c(c23)CCCC4)CC1` the Potency was inconclusive: 29.1 µM [falling, single point]. For `Oc1oc(-c2ccccc2)nc1C=Nc1cccc2ccccc12`, the “activity change, negative = cytotoxicity” value was inactive: -5.72%. For `CCCCC[C@H]1CN(CCCC)C(=O)[C@@H]1CC(=O)NCc1ccc(OC)cc1`, the “activity change, negative = cytotoxicity” value was inactive: -5.89%. For `CS(=O)(=O)Nc1ccccc1C(=O)NCCSc1ccc(Cl)cc1`, the “activity change, negative = cytotoxicity” value was inactive: -0.197%. For `Nc1nc(SCc2nc(-c3ccccc3)no2)[nH]c(=O)c1-c1ccccc1`, the Potency was inconclusive: 6.51 µM [falling, single point]. With `Cn1nc(C(=O)N2CCN(c3ccc(Cl)cc3)CC2)c2c1-c1ccccc1S(=O)(=O)C2` the Potency was “inactive”. In the case of `CCCCCn1c(=O)[nH]c2cc(C(=O)N3CCN(CC)CC3)ccc2c1=O`, the Potency is reported as inconclusive: 5.17 µM [activator, full curve, poor fit]. In the case of `CCC1CN(C(=O)Nc2cccc(OC)c2)c2ccccc2O1` (configuration not stated), the Potency is reported as inconclusive: 29.1 µM [falling, single point]. For `Cc1noc(C)c1COc1cccc(C(=O)OCC(=O)N2CC(=O)Nc3ccccc32)c1`, the Potency was inconclusive: 7.31 µM [falling, partial curve, poor fit]. With `C=CCn1c(=N)n(CC(=O)c2ccc(Br)cc2)c2ccccc21` the Potency was inconclusive: 29.1 µM [falling, single point]. In the case of `COc1ccc(C2CC(O)(c3ccccc3)Oc3cc(OC)c(OC)c(OC)c32)cc1` (configuration not stated), the Potency is reported as inconclusive: 20.6 µM [falling, single point]. For `COc1ccc(C(=O)NCCn2ccc3ccccc32)c(OC)c1`, the Potency was inconclusive: 23.1 µM [activator, single point]. In the case of `COc1ccc(N2CCN(C(=O)c3ccc4c(=O)n(CCc5ccc(OC)c(OC)c5)c(=O)[nH]c4c3)CC2)cc1`, the Potency is reported as inconclusive: 20.6 µM [falling, partial curve, poor fit]. For `Cn1c(N)c(C(=O)COC(=O)CNC(=O)c2ccccc2Cl)c(=O)n(C)c1=O`, the “activity change, negative = cytotoxicity” value was inactive: -1.43%. For `COc1ccccc1N1N=C(c2ccc([N+](=O)[O-])cc2)CC1c1ccccc1` (configuration not stated), the Potency was inconclusive: 29.1 µM [falling, single point]. In the case of `COCCNC(=O)/C(C#N)=C/c1c(N2CCN(c3cccc(Cl)c3)CC2)nc2c(C)cccn2c1=O`, the Potency is reported as inconclusive: 16.4 µM [falling, partial curve, poor fit]. With `CCn1nc(NS(=O)(=O)c2ccc([N+](=O)[O-])cc2)c2cc3cccc(C)c3nc21` the Potency was inconclusive: 32.6 µM [falling, partial curve, poor fit]. For `CC(=O)OCCNc1cc(SC(C)C)c2nonc2c1[N+](=O)[O-]`, the Potency was inconclusive: 18.4 µM [falling, partial curve]. With `COc1ccc(NC(=O)CSc2nc3ccccc3c(=O)n2CCCC(=O)NCC2CCCO2)c(OC)c1` (configuration not stated) the Potency was inconclusive: 16.4 µM [falling, partial curve, poor fit]. With `CCOc1ccc(CC2NCCc3cc(OCC)c(OCC)cc32)cc1OCC` (configuration not stated) the Potency was inconclusive: 29.1 µM [falling, partial curve, poor fit]. In the case of `CCc1ccc(NS(=O)(=O)c2ccc3[nH]cc(C(=O)NCc4ccc(C)cc4)c(=O)c3c2)cc1`, the Potency is reported as inconclusive: 23.1 µM [falling, partial curve, poor fit]. In the case of `Cc1ccc(NS(=O)(=O)c2cc(NC(=O)c3ccc4c(c3)NC(=O)CS4)ccc2C)c(C)c1`, the Potency is reported as inconclusive: 29.1 µM [falling, single point]. With `O=C(Cn1ncc(Cl)c(Cl)c1=O)c1ccc2c(c1)OCCO2` the “activity change, negative = cytotoxicity” value was inactive: -4.07%. For `CCN(CC)c1ccc(/C=N/Nc2nc3ccccc3[nH]2)cc1`, the Potency was inconclusive: 18.4 µM [falling, partial curve]. With `CCCCC(CC)C(=O)Nc1ncc([N+](=O)[O-])s1` (configuration not stated) the Potency was active: 18.4 µM. With `Cc1ccc(NC(=O)c2cc3c(-c4ccccc4)nn(-c4ccccc4)c3s2)cc1` the “activity change, negative = cytotoxicity” value was inactive: -3.49%. For `O=C(CCCc1nc(-c2ccccc2)no1)Nc1cc(C(F)(F)F)cc(C(F)(F)F)c1`, the “activity change, negative = cytotoxicity” value was inactive: -36%. In the case of `O=C(Nc1scc(-c2ccccc2)c1C(=O)O)c1ccccc1F`, the “activity change, negative = cytotoxicity” value is reported as inactive: -1.99%. With `CCC(C(=O)Nc1ccc2c(c1)OCCO2)n1nnc2ccccc2c1=O` (configuration not stated) the “activity change, negative = cytotoxicity” value was inactive: -2.69%. For `N#Cc1nc(NCC(F)F)c2ncn(-c3cccc(Cl)c3)c2n1`, the Potency was inconclusive: 18.4 µM [falling, partial curve, poor fit]. With `Cn1nnnc1Sc1ncnc2scc(-c3cccs3)c12` the Potency was inconclusive: 29.1 µM [falling, single point]. For `O=C(Nc1nnc(S(=O)(=O)N2CCCCC2)s1)c1ccc(F)cc1`, the “activity change, negative = cytotoxicity” value was inactive: -0.604%. For `NC(=O)CC(NC(=O)Cc1cccc2ccccc12)c1ccc(NC2CC3CCC2C3)c([N+](=O)[O-])c1` (configuration not stated), the Potency was inconclusive: 20.6 µM [falling, single point]. For `CC1=NN(C(N)=S)C(=O)C1N=Nc1ccc(O)cc1` (configuration not stated), the Potency was inconclusive: 18.4 µM [falling, single point]. With `OC(c1ccccc1)(C1CCCCC1)C(CN1CCOCC1)c1ccccc1` (configuration not stated) the “activity change, negative = cytotoxicity” value was inactive: 10.8%. With `O=C1C(Cl)=C(Nc2ccccc2O)C(=O)N1c1ccccc1` the “activity change, negative = cytotoxicity” value was inactive: -10%. With `CCN(CC)CCCNC(=O)C1CCN(S(C)(=O)=O)CC1` the “activity change, negative = cytotoxicity” value was inactive: -2.41%. For `COc1cccc(O)c1CN1CCC(C(=O)Nc2ccc(Oc3cccnc3)cc2)CC1`, the “activity change, negative = cytotoxicity” value was inactive: -3.8%. For `COc1ccccc1/C=N\Nc1ccccc1[N+](=O)[O-]`, the “activity change, negative = cytotoxicity” value was inactive: -12.1%. For `COc1ccc(Nc2nc(Nc3ccc(OC)cc3)nc(-n3[nH]c(=O)c(C)c3C)n2)cc1`, the Potency was inconclusive: 1.64 µM [activator, partial curve, poor fit]. For `CC(=O)Nc1sc(C)c(C)c1C(=O)Nc1ccc(C)cc1`, the Potency was inconclusive: 32.6 µM [activator, partial curve, poor fit]. In the case of `O=C(O)c1ccc(N2CCc3ccccc32)c([N+](=O)[O-])c1`, the Potency is reported as inconclusive: 23.1 µM [falling, partial curve, poor fit]. In the case of `Cc1oc(-c2ccc(C(=O)Nc3cccc(C(F)(F)F)c3)cc2)nc1CSc1ccccc1`, the Potency is reported as inconclusive: 25.9 µM [falling, partial curve, poor fit]. For `O=C(Oc1ccccc1Cl)c1cc(-c2ccc3c(c2)OCCO3)on1`, the Potency was inconclusive: 29.1 µM [activator, partial curve, poor fit]. With `CCN1CCN(c2cc(C)c3cc(NC(=O)c4cccc(Cl)c4)ccc3n2)CC1` the Potency was inconclusive: 25.9 µM [falling, single point]. In the case of `COc1ccc(C(=O)Nc2ccc(C)cn2)c(OC)c1`, the “activity change, negative = cytotoxicity” value is reported as inactive: 2.98%. With `CCOc1ccccc1C1CC(=O)NC2=C1C(=O)CCC2` (configuration not stated) the Potency was inconclusive: 14.6 µM [falling, partial curve, poor fit]. With `Cc1cc(C)cc(S(=O)(=O)c2cn(C)c3cc(N4CCN(C)CC4)c(F)cc3c2=O)c1` the Potency was inconclusive: 16.4 µM [falling, partial curve, poor fit]. In the case of `O=C(c1cc(C2CC2)nc2ccc(Br)cc12)N1N=C(C(F)F)CC1(O)C(F)F` (configuration not stated), the Potency is reported as inconclusive: 29.1 µM [falling, single point]. With `O=[N+]([O-])c1ccc(CN2CCN(c3ccc(Cl)cc3)CC2)o1` the “activity change, negative = cytotoxicity” value was inactive: 6.74%. For `CCOc1nc(C)nc(NC(=O)NS(=O)(=O)c2ccccc2Cl)n1`, the Potency was inconclusive: 23.1 µM [activator, single point]. In the case of `N=c1oc2c3c4c(cc2cc1C(=O)Nc1ccccc1)CCCN4CCC3`, the Potency is reported as inconclusive: 2.59 µM [activator, full curve, poor fit]. With `O=C(O)c1c[nH]c2ccc(S(=O)(=O)N3CCN(c4ccc(F)cc4)CC3)cc2c1=O` the Potency was inconclusive: 20.6 µM [falling, partial curve, poor fit]. With `COCc1ccc(CN2CCC(C(=O)Nc3cccc(-c4cccc(Cl)c4)c3)CC2)o1` the Potency was inconclusive: 29.1 µM [falling, single point]. With `CCCCCn1c(CCCNC(=O)c2cccc(C)c2)nc2ccccc21` the Potency was inconclusive: 20.6 µM [falling, partial curve, poor fit]. In the case of `CC(OC(=O)/C=C/c1ccccc1)C(=O)Nc1cccc(C#N)c1` (configuration not stated), the Potency is reported as inconclusive: 18.4 µM [falling, partial curve, poor fit]. In the case of `Cc1nc(-c2ccccn2)sc1C(=O)Nc1ccc(F)cc1`, the “activity change, negative = cytotoxicity” value is reported as inactive: -4.21%. In the case of `CCN1CCN(c2ccc(S(=O)(=O)N3CCCCC3)cc2NC(=O)Cc2ccc(Cl)c(Cl)c2)CC1`, the “activity change, negative = cytotoxicity” value is reported as inactive: -8.41%. With `COc1ccc(OC)c(CNC(=O)c2cc3ccc4cccnc4c3[nH]2)c1` the “activity change, negative = cytotoxicity” value was inactive: 2.88%. In the case of `Cc1oc(-c2ccc(Cl)cc2)nc1CN1CCC(C(=O)NCCCN2CCCC(C)C2)CC1` (configuration not stated), the Potency is reported as inconclusive: 23.1 µM [falling, single point]. For `Cc1ccc(C2(C)NC(=O)N(CC(=O)NCCN3C(=O)S/C(=C\c4cccnc4)C3=O)C2=O)cc1` (configuration not stated), the Potency was inconclusive: 0.13 µM [falling, full curve, poor fit]. For `O=C(Cc1csc(-c2ccc(F)cc2)n1)Nc1cccc(S(=O)(=O)NC2=NCCC2)c1`, the “activity change, negative = cytotoxicity” value was inactive: -17.5%. With `CC(=O)Oc1ccc(-c2cccc(C(=O)Oc3ccccc3)c2)cc1` the Potency was inconclusive: 2.59 µM [activator, partial curve, poor fit]. With `CCOC(=O)c1c(NC(=O)CN2C(=O)NC3(CCCC3)C2=O)sc(C)c1CC` the Potency was inconclusive: 18.4 µM [falling, single point].
